Results on 1 molecule are retold here after publication PMC8880385 (Pharmaceuticals, 2022).

One series deals with O. volvulus pre-adult L5. Kind of series: Ov L5 viability by endpoint MTT assay. The format is cell-based, Onchocerca volvulus. To be noted: 1 µM. The method, then:
Briefly, Ov L3 larvae were cultured to the pre-adult/L5 stage in vitro as described by Voronin et al., 2019 [45]. Once larvae reached the L5 stage (after at least 70 days in culture), 8–10 Ov L5 were moved to new transwell inserts in a 24-well plate containing 0.5 mL Ov L4-CMS media seeded with a 3 × 10^4/well Human Umbilical Vein Endothelial Cells (HUVEC) monolayer. Duplicate wells were treated with 1 and/or 10 µM of compound. Ov L5 were exposed to compounds for 14 days (exchanged 50% of media with fresh compound every two days) and then cultured with new media without compound, exchanging 50% of media every 2–3 days, up to day 36. Control Ov L5 were treated with 0.05% DMSO. Concentrations were chosen based on activity in the B. pahangi female motility assay. Motility was assessed visually and ranked on a 0–100% scale every 2–3 days over the course of the assay. At the end of the motility assay, Ov L5 viability was measured by 3-(4,5-dimethylthiazol-2-yl)-2,5-diphenyltetrazolium bromide (MTT) assay. Ov L5 were incubated with 0.1% MTT in PBS at 37 °C for 1 h then visually inspected for blue coloration indicating MTT reduction. Worms were considered dead if <50% of the worm was stained blue, and worms were considered alive if >50% of the worm was stained blue.

A short description of the next series: in vitro. The note with it: dog, MDCK-MDR1. The method, then: Permeability assays were conducted using 5 µM of each test compound with digoxin as a control. […] electrical resistance was used to verify the integrity of the MDCK-MDR1 monolayer. After compound addition, plates were incubated at 37 °C with 5% CO2 for 1 h. Samples were analyzed by LC–MS/MS and net flux ratio was calculated using basal-to-apical and apical-to-basal permeability.

Structures are written as SMILES. Where only a bound is given, the exact number is not on record here.

With `Cc1cc(/C=C/c2ccc3cc(N(C)C)ccc3[n+]2C)c(C)n1-c1ccccc1` [PVP, pyrvinium pamoate, reference compound], in the series on O. volvulus pre-adult L5, the “O. volvulus L5 % inhibition of viability Day 37 (MTT assay)” value amounted to 100%. In addition, in “in vitro”, the apical-to-basolateral permeability (Papp A→B) (usually the apparent permeability from the apical to the basolateral side of a cell layer) was less than 0.07 ×10⁻⁶ cm/s, the Papp B→A (commonly how fast a substance crosses the layer from the basolateral side) is 6.6 ×10⁻⁶ cm/s and the recovery is 69%.
